# Screening data, single-dose tests

From ChEMBL document CHEMBL3988442, “University of Dundee, Small-Polar-MMV Screening Library” (2021).

T. brucei: 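Whole-parasite assay of Trypanosoma brucei over 72 hours; the read-out is not stated. Compounds at 30 µM. Direction is inferred from retests: higher values go with stronger inhibition. Values scatter widely below zero; nearly all retest evidence comes from the higher of the two concentrations used. Of about 64,000 compounds tested this way, about 940 (1.5%) reached 50% or more in at least one test.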
Toxoplasma: 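Assay of Toxoplasma gondii numbers, read through their beta-galactosidase reporter with a colour substrate. Tested at 10 µM. Higher reads as fewer parasites (inferred from which compounds were picked for retests). About 67,000 compounds were tested under these conditions; 0.38% (about 260) showed 50% or more at least once.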

Each number is a percent effect as filed. The record does not define 0% and 100%; most values in the screen are far below 50% and negative numbers occur (in some assays of this library far below -100). Compounds were drawn at random from those tested, without regard to their results. A dash means the value is not listed here; it may have been measured.

| structure | T. brucei | Toxoplasma |
|---|---|---|
| `COc1ccc(CNC(=O)C2=NN(c3ccc(C)cc3)C(=O)CN2)cc1` | 5.199 | -0.9855 |
| `CCc1nc(NC2CCCN(C(=O)c3cccs3)C2)c2cnn(C)c2n1` (stereo not shown) | -38.62 | - |
| `COc1ccc(CNC(=O)c2ccc(Br)cn2)cc1` | -0.7561 | 4.991 |
| `O=c1[nH]c2nc(NCC3CCCO3)ncc2c(=O)n1-c1cccc(F)c1` (stereo not shown) | -16.2 | -8.442 |
| `CCCC(C)(C)NC(=O)c1ccc(CC2CC(=O)NC2=O)cc1` (stereo not shown) | -47.07 | 0.7663 |
| `CN(C)c1ncccc1CNS(=O)(=O)c1ccccc1F` | 4.207 | 2.892 |
| `COc1ccc(-c2ccc(C(=O)NS(C)(=O)=O)c(F)c2)c(F)c1` | -12.19 | 1.747 |
| `O=C(O)C(F)(F)F.[H][C@@]12OCCN(C(=O)C3=CCCCC3)[C@@]1([H])CC[C@H]2Oc1ccccn1` | 5.472 | 2.028 |
| `CCN1CCCC12CCN(C(=O)c1ccsc1)CC2.O=C(O)C(F)(F)F` | -84.14 | -0.6915 |
| `COc1cc(Cl)cc(CN2CCCC(N3CCCC3)C2)c1OC` (stereo not shown) | -17.8 | 13.33 |
| `O=C(NCC(O)c1ccc(F)cc1F)c1ccccc1F` (stereo not shown) | -6.084 | 1.274 |
| `O=S(=O)(CCNCc1cccc2c1OCCO2)N1CCOCC1` | -16.84 | -4.27 |
| `[H][C@@]12C[C@@H](Oc3cccnc3)CN1CCN(Cc1ccccn1)C2` | -9.052 | 8 |
| `CC(C)C(C(=O)N1CCN(Cc2cscn2)CC1)n1cncn1` (stereo not shown) | -10.41 | 6.271 |
| `O=C(c1ccncn1)N1CCC[C@]2(C[C@@H](OCC3CC3)CO2)C1` | -8.305 | -13.28 |
| `CC(C)C(=O)N1CCC(NC2CCSCC2)C1` (stereo not shown) | -22.01 | 6.923 |
| `O=C(NCc1noc(C2CCCO2)n1)c1cn2ccsc2n1` (stereo not shown) | 8.05 | -33.7 |
| `CCC(=O)N1CCC(c2ncc3c(n2)CCNC3)CC1` | 21.18 | 26.32 |
| `CS(=O)(=O)N1CCN(Cc2csc(-c3ncccn3)n2)CC1` | 10.17 | 2.093 |
| `NC(=O)C1CCCN1C(=O)c1cccc2c1OCO2` (stereo not shown) | -1.516 | 10.01 |
| `O=C(Cn1cnc2sccc2c1=O)NCCCc1nnc2ccccn12` | -2.863 | -13.76 |
| `COCC(=O)N1CCC2(CC1)COC(COCc1ccccn1)C2.O=C(O)C(F)(F)F` (stereo not shown) | -77.3 | -0.1952 |
| `O=C(CN1CCCC1Cn1cncn1)Nc1nccs1` (stereo not shown) | -30.25 | 16.11 |
| `O=c1c2cnc(N3CCCC3)nc2ccn1-c1cccc(C(F)(F)F)c1` | -15.48 | 8.865 |
| `C[C@@H]1CN(Cc2ccccn2)C[C@]12CCN(Cc1cccnc1)C2=O.O=C(O)C(F)(F)F.O=C(O)C(F)(F)F.O=C(O)C(F)(F)F` | -62.18 | -16.69 |
| `O=C(O)C(F)(F)F.O=C(c1ccco1)N1CC2(CCNCC2)c2cc(Cl)ccc21` | 13.94 | -16.42 |
| `CC1CCC(NC(=O)Nc2ccc(CC(=O)N(C)C)cc2)CC1` (stereo not shown) | -18.29 | 5.724 |
| `Cc1cc2c(=O)n3c(nc2s1)CCN(Cc1cncn1C)CC3.Cl` | 6.762 | -9.85 |
| `COc1ccc(C)cc1CN(C)CC(=O)NC1(C)CCS(=O)(=O)C1` (stereo not shown) | 15.25 | 1.546 |
| `Cc1nc(CN(C)C)cc(N2CCCC(COc3ccc(F)cc3)C2)n1` (stereo not shown) | 33.53 | -9.645 |
| `O=C(NCc1cccs1)c1nc2c(o1)CN(C(=O)c1cccnc1)C2.O=C(O)C(F)(F)F` | -17.92 | 4.039 |
| `O=C(NC1CC1)c1cc2c(s1)CCN2C(=O)C1CC1` | -29.01 | 17.04 |
| `Cc1cccc(C(C(=O)NCc2nc(-c3cccnc3)no2)N(C)C)c1` (stereo not shown) | -57.23 | -4.639 |
| `Cc1cccc(C)c1OCC(=O)NC(C)c1nnc2n1CCC2` (stereo not shown) | 13.37 | -10.05 |
| `Cc1ccc(O)c(CN2CCCCC2CCN2CCOCC2)c1` (stereo not shown) | -29.58 | -6.634 |
| `CCNC(=O)COc1ccc(C(=O)NC(C)CCc2ccco2)cc1` (stereo not shown) | -83.57 | -0.6321 |
| `CC(=O)Nc1ccc(CCC2(NC(=O)C3CCCO3)CCCCC2)cn1` (stereo not shown) | 13.51 | 1.232 |
| `CN(C)S(=O)(=O)N1CCCC1CC(=O)c1cccs1` (stereo not shown) | 1.976 | 0.6924 |
| `Cc1cc(CNC2(c3ccc(Cl)cc3)CC2)no1` | 10.33 | -0.918 |
| `OC1(c2ccccc2F)CCN(Cc2ccccc2N2CCCC2)CC1` | 56.26 | 17.96 |
| `CCNC(=O)[C@@H]1C[C@@H](NC(=O)c2ccc(C#N)cc2)CN1CCCSC` | -34.21 | -21.18 |
| `CC(NC(=O)NCCCN1CCCCCC1=O)c1nncn1C` (stereo not shown) | -29.33 | 20.07 |
| `Cc1noc(CN(CCc2ccco2)Cc2cccc(C#N)c2)n1` | -34.23 | -7.552 |
| `Cc1ccc(CN(C)C)cc1NC(=O)C1CC1` | -31.74 | 0.6472 |
| `CCc1ccc(OCC(O)CN2CCN(S(C)(=O)=O)CC2)cc1` (stereo not shown) | -52.3 | 5.848 |
| `CCS(=O)(=O)N1CCc2onc(COc3ccccn3)c2C1.O=C(O)C(F)(F)F` | -43.51 | -2.427 |
| `Cc1cc(C)n(C2CN(CC(=O)N3CCOCC3)C2)n1` | -13.57 | 3.543 |
| `CNC(=O)CS(=O)(=O)NC1CCC(C)CC1` (stereo not shown) | -16.21 | -9.772 |
| `COCCCNC(=O)N1CCN(C(=O)c2nsc3ccc(C)cc23)CC1` | 3.124 | 1.252 |
| `Cc1cc(CN(C)Cc2csc(-c3ccc(C(C)C)cc3)n2)no1` | -64.44 | 0 |
| `O=C(O)C(F)(F)F.O=C(O)C(F)(F)F.[H][C@@]12CCC(=O)N(c3cnn(C)c3)[C@]1([H])CCN2Cc1cccc(C#N)c1` | -31.19 | -1.366 |
| `N#Cc1cn(CC(=O)NC2CC2)c2ccc(Br)cc2c1=O` | 10.36 | 0.6608 |
| `CC(=O)Nc1nc(C2CCN(C(=O)c3ccncc3)CC2)cs1` | 21.36 | 5.839 |
| `Cc1ccc(Oc2ncccc2CNC(=O)C2COC(=O)N2)c(F)c1F` (stereo not shown) | 17.54 | -10.51 |
| `Cn1ccnc1C(NCc1ccccc1)c1ccc(F)cc1` (stereo not shown) | - | -6.837 |
| `CS(=O)(=O)NCC(=O)NC1CCc2nccn2C1` (stereo not shown) | -24.67 | -0.9912 |
| `N#Cc1cc(F)ccc1NCc1ccc(Cn2cncn2)cc1` | -22.37 | -0.05359 |
| `CCS(=O)(=O)c1ccc2oc([C@H]3CCN(CC4CCCCC4)C3)nc2c1` | -26.45 | -9.742 |
| `O=C(CN(CC1CCC1)CC(F)(F)F)N1CCOCC1` | 0.9658 | -7.447 |
| `NC(=O)C1CCCN(Cc2ccc(C(=O)Nc3cnns3)cc2)C1` (stereo not shown) | -29.97 | 10.7 |
| `[H][C@@]12CN(CC(C)C)C[C@]1([H])OCC(=O)N2c1ccccc1` | 2.985 | -7.709 |
| `CN1C(=N)NC(=O)/C1=C\c1ccc(-c2ccc(F)cc2)o1` | -46.77 | -10.62 |
| `CN(C)CCN(C)C(=O)NC1CCC(Oc2ccccc2C#N)CC1` (stereo not shown) | 7.047 | 2.022 |
| `N#Cc1ccc(CN2CCN(Cc3ccncc3Cl)CC2=O)cc1` | -29.25 | 6.671 |
| `CCOC(=O)N1CCN(C(=O)CCn2ccc3c(OC)cccc32)CC1` | -0.7819 | -0.8547 |
| `COCCN1CCC(c2nc3cc(C)ccc3[nH]2)CC1` | -10.54 | -22.25 |
| `Cc1ccc(C(O)CN2CCN(Cc3nccn3C)CC2)cc1C` (stereo not shown) | - | 9.547 |
| `NS(=O)(=O)CCNC(=O)CCc1cc(Br)cs1` | -2.717 | -13.85 |
| `O=C(O)C(F)(F)F.O=C(O)C(F)(F)F.c1cc(-c2ccc3nc(C4CCN(CC5CC5)CC4)nn3c2)ccn1` | -11.88 | 11.61 |
| `Cc1cc(C)n(CCC(=O)N2CCCC(n3nc(C)nc3C)C2)n1` (stereo not shown) | -13.01 | 12.84 |
| `CC(C)NC1CCc2c(ccc(=O)n2CCN2CCOCC2)C1.O=C(O)C(F)(F)F.O=C(O)C(F)(F)F` (stereo not shown) | - | -2.386 |
| `Cc1nn(C)c(C)c1C1CCCN1CC(=O)NCc1ccccn1` (stereo not shown) | -11.47 | -24.29 |
| `[H][C@]12CCC[C@@]1(COCC1CCOCC1)CN(C(=O)c1ccncn1)C2` | 54.31 | -7.471 |
| `O=C(c1cccc(S(=O)(=O)NCCCn2cccn2)c1)N1CCOCC1` | -41.9 | 5.758 |
| `Cc1cnc(CN(C)CC2CCCN2c2cccnn2)cn1` (stereo not shown) | -32.68 | 5.848 |
| `CN(Cc1ccco1)C(=O)Nc1ccc(=O)n(C)c1` | -34.93 | -10.15 |